Reference: paper doi:10.1101/2023.10.06.561273, “Bacterial cell surface nanoenvironment requires a specialized chaperone to activate a peptidoglycan biosynthetic enzyme” (bioRxiv, 2023)
No constants are given. Whether binding was seen depends on the method and setting. In cells and extracts the contact can be indirect. Binding calls can cover weak binding; strength is not graded here.

Amino acid sequences for entries named in this document (tags omitted). A change or cut given only in a name is not applied to a line headed by its entry.
UniProt P27643: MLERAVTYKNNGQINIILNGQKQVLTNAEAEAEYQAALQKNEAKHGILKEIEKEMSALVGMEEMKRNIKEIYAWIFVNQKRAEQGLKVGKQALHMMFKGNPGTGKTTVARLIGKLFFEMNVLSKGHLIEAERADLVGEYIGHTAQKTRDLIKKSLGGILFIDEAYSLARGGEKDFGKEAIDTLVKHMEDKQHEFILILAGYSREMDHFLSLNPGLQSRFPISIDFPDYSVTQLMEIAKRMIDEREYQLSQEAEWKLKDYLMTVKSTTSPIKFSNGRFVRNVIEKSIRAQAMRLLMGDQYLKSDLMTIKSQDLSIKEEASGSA

Target: SpoVK^B*-FLAG variant in which amino acids 2-5 were deleted (SpoVK^Δ2−6-FLAG) (B. subtilis) (UniProt P27643)
Assay: co-IP; anti-FLAG magnetic beads on extracts of B. subtilis 4 h after induction of sporulation (cells with SpoVID, or ΔspoVID cells for MurG); binding buffer 50 mM Tris-HCl pH 7.5, 150 mM NaCl, 7.5% glycerol, 0.2% Triton-X-100, 4 °C, 1 h; elution with 100 mM glycine pH 2.7; fractions immunoblotted

- binding: binds
B1: SpoVID (protein, UniProt P37963 1-575)
chain: MPQNHRLQFSVEESICFQKGQEVSELLSISLDPDIRVQEVNDYVSIIGSLELTGEYNIDQNKHTEEIYTDKRFVEQVRKREDGSAELTHCFPVDITIPKNKVSHLQDVFVFIDAFDYQLTDSRILTIQADLAIEGLLDDTQDKEPEIPLYEAPAAFREEELSEPPAHSVVEEPGASSAEEAVLQHEPPAEPPELFISKAGLREELETEKAESEPPESVASEPEAREDVKEEEESEELAVPETEVRAESETEESEPEPDPSEIEIQEIVKAKKETAEPAAAIADVREEADSPAETELREHVGAEESPALEAELHSETVIAKEKEETTVSPNHEYALRQEAQNEEAAQSDQADPALCQEEAEPDEALESVSEAALSIEDSRETASAVYMENDNADLHFHFNQKTSSEEASQEELPEPAYRTFLPEQEEEDSFYSAPKLLEEEEQEEESFEIEVRKTPSAEEPKEETPFQSFQLPESSETERKETDAVPRVAPAAETKEPQTKESDNSLYLTKLFTKEADEFSRMKICIVQQEDTIERLCERYEITSQQLIRMNSLALDDELKAGQILYIPQYKNSHA
